This note sets out measurements from publication PMC6606597.

Sequences of proteins named here, by UniProt entry; tags and fusion partners are left off.
UniProt Q9WVL2: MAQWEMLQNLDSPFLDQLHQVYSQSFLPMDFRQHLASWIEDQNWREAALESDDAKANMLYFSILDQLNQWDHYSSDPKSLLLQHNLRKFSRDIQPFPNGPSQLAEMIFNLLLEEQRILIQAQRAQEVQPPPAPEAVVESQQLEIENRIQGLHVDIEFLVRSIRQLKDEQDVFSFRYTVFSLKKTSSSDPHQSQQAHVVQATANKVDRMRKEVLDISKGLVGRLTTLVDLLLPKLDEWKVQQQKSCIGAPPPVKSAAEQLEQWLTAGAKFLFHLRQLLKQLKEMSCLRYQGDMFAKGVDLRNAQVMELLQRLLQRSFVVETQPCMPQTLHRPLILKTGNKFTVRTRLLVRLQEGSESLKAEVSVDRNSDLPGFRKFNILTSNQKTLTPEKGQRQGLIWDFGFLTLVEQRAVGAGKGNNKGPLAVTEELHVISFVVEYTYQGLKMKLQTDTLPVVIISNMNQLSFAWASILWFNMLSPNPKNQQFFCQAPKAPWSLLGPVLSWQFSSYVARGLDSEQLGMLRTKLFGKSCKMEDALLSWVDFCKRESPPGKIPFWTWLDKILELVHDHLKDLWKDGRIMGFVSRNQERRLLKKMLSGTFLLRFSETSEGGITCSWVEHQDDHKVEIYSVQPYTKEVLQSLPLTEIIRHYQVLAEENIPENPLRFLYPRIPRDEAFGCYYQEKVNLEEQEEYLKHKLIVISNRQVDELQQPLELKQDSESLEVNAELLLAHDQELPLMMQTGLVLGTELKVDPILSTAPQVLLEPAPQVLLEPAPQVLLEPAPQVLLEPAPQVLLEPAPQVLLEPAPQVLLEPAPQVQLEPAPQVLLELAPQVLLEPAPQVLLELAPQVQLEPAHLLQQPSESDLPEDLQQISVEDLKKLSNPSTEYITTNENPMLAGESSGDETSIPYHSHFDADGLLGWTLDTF

Results are given in words; binding and its absence hold for the method and conditions named. Binding seen in cells or lysates may run through a third protein. Some binding calls cover weakened binding; strength is not graded here.

This assay concerns the target STAT2 (signal transducer and activator of transcription 2), endogenous (mouse (endogenous in BMDM and Raw 264.7)) (UniProt Q9WVL2). Kind of assay: co-IP; endogenous proteins of mouse BMDM, resting or treated 1.5 h with IFN-β; lysis in 10 mM Tris-HCl pH 7.5, 50 mM NaCl, 1% Triton X-100; IP with antibodies to STAT1, STAT2, IRF9 or IgG control, protein G beads, western blot. On the technique in general: A western blot detects proteins with antibodies after separation by electrophoresis.

B1: interferon regulatory factor 9 (IRF9), endogenous (protein, UniProt Q61179 1-399)
chain: MASGKVRCTRKLRSWIVEQVESGHFPGVCWDDAAKTMFRIPWKHAGKQDFREDQDAAIFKAWALFKEKHKDGDIGHPAVWKTRLRCALNKSSEFEEVPERGRMDVAEPYKVYRILPAGTLPNQPRNQKSPCKRSISCVSPEREENMENGRTNGVVNHSDSGSNIGGGGNGSNRSDSNSNCNSELEEGAGTTEATIREDPVFLEHQLPLNSDYSLLLTFIYGGRVVGKTQVHSLDCRLVAERSDSESSMEQVEFPKPDPLEPTQHLLNQLDRGVLVASNSRGLFVQRLCPIPISWNAPEAPPGPGPHLLPSNKCVELFKTTYFCRDLAQYFQGQGPPPKFQATLHFWEESPGSSHSQENLITVQMEQAFARHLLEKIPEEEKAALFLLQHTEQSPSALGH
Regarding B1, the binding entry is listed as “binds”.
